Here are results for 1 molecule from patent publication US20210032350A1 (Memorial Sloan Kettering, published 2021).

Sequences of proteins named here, by UniProt entry; tags and fusion partners are left off. A change or cut given only in a name is not applied to a line headed by its entry.
UniProt P17931: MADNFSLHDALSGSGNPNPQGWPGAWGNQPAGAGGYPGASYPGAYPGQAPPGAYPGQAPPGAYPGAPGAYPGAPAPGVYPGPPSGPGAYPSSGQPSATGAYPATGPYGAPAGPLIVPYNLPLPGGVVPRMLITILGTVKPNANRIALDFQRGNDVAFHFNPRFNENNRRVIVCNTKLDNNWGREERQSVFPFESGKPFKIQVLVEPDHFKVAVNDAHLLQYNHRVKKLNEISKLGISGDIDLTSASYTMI

The target in assay [1] is polyhistidine-tagged LGALS3 (human) (UniProt P17931). Kind of assay: ELISA, nickel-coated plate, His-tagged LGALS3 500 ng/well, goat anti-mouse IgG1-HRP. (An ELISA detects its analyte on a solid surface through an enzyme-linked reagent.)
Assay [2] shares this target. In words: ELISA, nickel-coated plate with polyhistidine-tagged LGALS3.

No constants are given. Whether binding was seen depends on the method and setting. Some entries that bind do so weakly or less than the wild type.

B1: 112516.14D11.2D2 (antibody, V domains shown)
VH: QVQLKESGPGLVAPSQSLSITCTISGFSLSSYGVHWVRQPPGKGLEWLVVIWSDGSTTYNSTLKSRLSISKDNSKSQVFLKMNSLQTDDTAMYYCARHISNYGTMDYWGQGTSVTVS
VL: DIQMTQTTSSLSASLGDRVTISCRASQDIRNYLNWYQQKPDGSIKLLIYYTSRLHSGVPSRFSGSGSGTDYSLTIRNLEQEDIATYFCQHFNTLPPTFGGGTKLEIK
With B1, the binding result in assay [1] and in assay [2] was “binds” each time.
